Screen size: about 5,300 compounds; about 130 (2.5%) showed an effect of 50% or more. Some of the results follow.

For this assay, the system named is M. mycetomatis strain mm55. The following applies: primary screen, metabolic activity vs growth control; 96 h, 2 µM; inhibitor.
`Cc1c(Cn2c(C)nc3c(C(=O)O)cc(N4CCOCC4)cc32)cccc1C(F)(F)F` [ONC0004425, gsk2636771]: the “% viability” value turned out to be 93.19%.

Consider `CCNC(=O)[C@@H]1CCCN1C(=O)[C@H](CCCNC(=N)N)NC(=O)[C@H](CC(C)C)NC(=O)[C@@H](C)NC(=O)[C@H](Cc1ccc(O)cc1)NC(=O)[C@H](CO)NC(=O)[C@H](Cc1c[nH]c2ccccc12)NC(=O)[C@H](Cc1c[nH]cn1)NC(=O)[C@@H]1CCC(=O)N1` [ONC0002202, alarelin acetate], for which the “% viability” value was found to be 212.3%.

As to `COc1ccc2nc3[nH]nc(C)c3c(NCCOCCO)c2c1` [ONC0003546, sch51344], the “% viability” value came to 79.32%.

Turning to `Clc1cccc(C(c2ccc3[nH]cnc3c2)n2ccnc2)c1` (centres unmarked) [ONC0001276, liarozole], the “% viability” value amounted to 96.95%.

Consider `c1ccc(-c2cnn3cc(-c4ccc(OCCN5CCOCC5)cc4)cnc23)cc1` [ONC0001741, dmh4], for which the “% viability” value turned out to be 59.96%.

As for `O=C(NCNC(=O)NC1C(=O)NC(=O)N1CO)NC1C(=O)NC(=O)N1CO` (centres unmarked) [ONC0002906, imidurea], the “% viability” value was 53.61%.

Take `C[C@@]1(O)[C@H](O)[C@@H](CO)O[C@H]1n1cnc2c(NC3CCCC3)nc(Cl)nc21` [ONC0001394, 2meccpa]: the “% viability” value is 91.96%.

On to `CC(C)c1onc(-c2c(Cl)cccc2Cl)c1COc1ccc(/C=C/c2cccc(C(=O)O)c2)c(Cl)c1` [ONC0001405, gw4064], for which the “% viability” value was found to be 103.5%.

With `CO[C@@H](C)Cn1c(=O)n(C)c2cnc3ccc(-c4cncc(C(C)(C)O)c4)cc3c21` [ONC0001027, ly3023414], the “% viability” value came to 89.83%.

Turning to `O=C1C2CC=CCC2C(=O)N1SC(Cl)(Cl)Cl` (centres unmarked) [ONC0003351, captan], the “% viability” value is 76.61%.

With `Nc1nc(Nc2ccc(S(N)(=O)=O)cc2)nn1C(=O)c1c(F)cccc1F` [ONC0004695, jnj7706621], the “% viability” value is reported as 96.52%.

As for `CC1=C(C(=O)O)N2C(=O)[C@@H](NC(=O)[C@H](N)c3ccc(O)cc3)[C@H]2SC1` [ONC0000772, cefadroxil], the “% viability” value was found to be 67.74%.

Take `C[C@@H]1[C@H](O)[C@@H](C)/C=C/C=C/CC/C=C/C=C/C=C/C=C/[C@H](O[C@@H]2O[C@H](C)[C@@H](O)[C@H](N)[C@@H]2O)C[C@@H]2O[C@](O)(C[C@@H](O)[C@H](O)CC[C@@H](O)C[C@@H](O)C[C@@H](O)CC(=O)O[C@H]1C)C[C@H](O)[C@H]2C(=O)O` [ONC0002036, nystatin]: the “% viability” value is 93.36%.

For the molecule `N#CC(=C(/N)Sc1ccccc1N)/C(C#N)=C(\N)Sc1ccccc1N` [ONC0002620, u0126], the “% viability” value came out at 70.31%.

(Values after PMC12670160, “A drug-repurposing screen of FDA- and EMA-approved drugs identifies two NF-κB inhibitors active against eumycetoma” (Journal of Antimicrobial Chemotherapy, 2025).)
